Measurements as given in publication PMC3898874.
No constants are given. Whether binding was seen depends on the method and setting. Binding seen in cells or lysates may run through a third protein.

Protein sequences, listed by entry. Tags and fused reporters are not part of them.
UniProt P42224: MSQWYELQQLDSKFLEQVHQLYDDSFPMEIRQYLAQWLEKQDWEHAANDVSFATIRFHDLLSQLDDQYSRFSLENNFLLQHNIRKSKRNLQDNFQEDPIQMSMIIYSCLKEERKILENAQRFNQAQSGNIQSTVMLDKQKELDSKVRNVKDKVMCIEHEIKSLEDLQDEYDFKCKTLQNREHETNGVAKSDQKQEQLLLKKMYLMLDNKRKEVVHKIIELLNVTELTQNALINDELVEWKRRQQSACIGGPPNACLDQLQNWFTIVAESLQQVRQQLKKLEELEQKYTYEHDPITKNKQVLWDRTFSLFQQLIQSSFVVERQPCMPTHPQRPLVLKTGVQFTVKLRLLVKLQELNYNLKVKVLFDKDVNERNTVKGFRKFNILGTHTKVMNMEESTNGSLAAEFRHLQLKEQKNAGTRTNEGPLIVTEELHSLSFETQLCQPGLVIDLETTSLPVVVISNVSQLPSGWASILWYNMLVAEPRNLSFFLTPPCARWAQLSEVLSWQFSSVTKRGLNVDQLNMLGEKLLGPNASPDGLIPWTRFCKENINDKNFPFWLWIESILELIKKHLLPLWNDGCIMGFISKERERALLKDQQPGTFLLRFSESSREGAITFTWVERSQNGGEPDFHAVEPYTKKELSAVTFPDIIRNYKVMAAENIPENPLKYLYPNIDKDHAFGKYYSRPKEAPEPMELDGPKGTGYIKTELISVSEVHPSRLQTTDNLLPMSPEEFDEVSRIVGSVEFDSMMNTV
UniProt P49407: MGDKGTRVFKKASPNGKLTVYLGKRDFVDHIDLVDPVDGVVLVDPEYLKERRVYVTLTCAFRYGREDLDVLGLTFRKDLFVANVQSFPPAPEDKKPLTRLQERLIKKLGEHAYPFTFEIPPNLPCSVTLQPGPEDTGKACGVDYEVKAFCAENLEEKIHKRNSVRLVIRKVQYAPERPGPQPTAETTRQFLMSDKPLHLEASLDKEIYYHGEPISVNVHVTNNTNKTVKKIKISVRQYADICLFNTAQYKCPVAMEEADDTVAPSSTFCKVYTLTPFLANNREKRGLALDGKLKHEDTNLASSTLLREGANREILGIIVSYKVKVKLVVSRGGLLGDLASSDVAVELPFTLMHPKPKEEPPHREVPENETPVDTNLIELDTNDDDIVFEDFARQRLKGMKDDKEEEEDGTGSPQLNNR

Target: FLAG-tagged STAT1 (signal transducer and activator of transcription 1) (UniProt P42224)
Assay: co-IP; anti-FLAG M2 immunoprecipitation (protein A/G PLUS agarose, 4°C) from soluble whole-cell extracts (500 μg protein) of co-transfected HEK293T cells, untreated or treated 1 h with 50 U/ml IFNγ; extraction and wash buffer with 280 mM NaCl, 0.5% NP-40, 50 mM Tris/HCl pH 7.4; quantitative blots with anti-GFP and anti-β-arrestin1; control IP without FLAG-tagged STAT1

- binding: no binding
Substance: human β-arrestin1-GFP (from UniProt P49407 1-418)
